Data: patent publication US6689807B1, “HMG CoA reductase inhibitors for promoting angiogenesis” (priority 2000, dated 2004)
At least one structure is not confirmed: it was looked up by name or label, or the drawing left a doubt.

System: eNOS
Assay: Phosphorylation of eNOS in COS-7 cells co-transfected with eNOS and HA-Akt
Assay type: cell-based

CCC(C)(C)C(=O)O[C@H]1C[C@@H](C)C=C2C=C[C@H](C)[C@H](CC[C@@H]3C[C@@H](O)CC(=O)O3)[C@H]21 [simvastatin]
phosphate incorporation into eNOS with serine 1179 mutated to alanine (S1179A eNOS): did not induce
phosphate incorporation into wild-type eNOS protein (wild-type eNOS plus HA-Akt): induced
